Literature values as cited in patent publication US6569459B2, “Method of administration of paclitaxel-plasma protein formulation” (Teva Pharmaceutical Industries, Ltd., priority 2000, dated 2003).

water solubility: substantially water insoluble
Structure (SMILES): CC(=O)O[C@H]1C(=O)[C@@]2(C)[C@H]([C@H](OC(=O)c3ccccc3)[C@]3(O)C[C@H](OC(=O)[C@H](O)[C@@H](NC(=O)c4ccccc4)c4ccccc4)C(C)=C1C3(C)C)[C@]1(OC(C)=O)CO[C@@H]1C[C@@H]2O [Paclitaxel]
